The list shows a part of the results.

Protein sequences, listed by entry. Tags and fused reporters are not part of them.
UniProt Q0JBA9, entry or part of it: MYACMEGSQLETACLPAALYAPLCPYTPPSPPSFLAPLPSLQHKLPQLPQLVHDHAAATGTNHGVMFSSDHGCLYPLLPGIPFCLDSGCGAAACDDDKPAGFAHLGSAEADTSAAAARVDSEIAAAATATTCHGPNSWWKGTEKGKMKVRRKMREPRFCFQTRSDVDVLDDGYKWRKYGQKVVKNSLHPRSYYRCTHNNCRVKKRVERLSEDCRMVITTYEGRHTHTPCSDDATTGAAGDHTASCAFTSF

In the experiment the target is OsWRKY34 (Oryza sativa, UniProt Q0JBA9 1-250). Nature of the experiment: protein-binding microarray (RPBM); PBS, 2% BSA, 51.3 ng/ul salmon testes DNA, 50 uM zinc acetate, 200 nM TF, 25 C, 1 h; high values mean tight binding. To be noted: protein: recombinant; tags: N-terminal polyhistidine and DsRed monomer fusion (pET32a); label: CyDye5-dUTP incorporated in the synthesized complementary strand; 3' TTTTT single-stranded linker to array surface; dsDNA, one strand shown. The essentials:
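An Axon 4000B scanner gave the binding signal as per-feature fluorescence intensity in arbitrary units. This followed washing of a custom Agilent array that had been incubated for 1 h at 25 °C with 200 nM protein in PBS, 2% BSA, salmon testes DNA and 50 µM zinc acetate. The proteins were transcription factors fused at the N-terminus to polyhistidine and DsRed, expressed in E. coli BL21-CodonPlus and purified on Ni–NTA.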
On to “GTCCACGACCACTCTACGGCGCCCCATGCGCGTCCTGCGGCGGAGTCACCTAGTGCAG”, for which the binding signal was 8260 fluorescence intensity (a.u.).

“GCAACACCACTCCGTCTGCCTCCGTCAACGCTCCACCATTCGGAGTCACCTAGTGCAG”: the binding signal is 9500 fluorescence intensity (a.u.).

For the sequence “GCCGCATCTTCTCGTTCTTCCTCACCCACAGCGTCTTCGTCGGAGTCACCTAGTGCAG”, the binding signal was 9320 fluorescence intensity (a.u.).

As for “ACGCAATTTTTCACCCTGGGTTGCCACTTTGGCATGCTACCGGAGTCACCTAGTGCAG”, the binding signal is 8640 fluorescence intensity (a.u.).

As for “TGAAAGGGGTTGATGTGTGGTGAAGGGTAGGTAATTTGTACGGAGTCACCTAGTGCAG”, the binding signal was 10700 fluorescence intensity (a.u.).

For the sequence “AATCTCACCCACAAGCATATCTCTCGCACCATTCCACCCTCGGAGTCACCTAGTGCAG”, the binding signal is 9100 fluorescence intensity (a.u.).

For the sequence “ATCTCTGACCTATATTCTCTGGTCATTGGCCGTGTACATCCGGAGTCACCTAGTGCAG”, the binding signal is 8990 fluorescence intensity (a.u.).

Take “TGCTCTAGTGTCCAATTGTGCTGCAGCCCTGTCTGACCTTCGGAGTCACCTAGTGCAG”: the binding signal was 10400 fluorescence intensity (a.u.).

Regarding “TTTCTTCCTCTGCTTCTTGGTTAGAACGCTCATGCTAGTTCGGAGTCACCTAGTGCAG”, the binding signal is 10500 fluorescence intensity (a.u.).

In the case of “TCTCTCTCTCTCTCTCTCTCTCTCTCTTCTCTTCTCTCATCGGAGTCACCTAGTGCAG”, the binding signal is 10300 fluorescence intensity (a.u.).

With “GCAATCAACACACTTGTTGTGACCATACGTACCTCTTTGCCGGAGTCACCTAGTGCAG”, the binding signal is 9410 fluorescence intensity (a.u.).

Regarding “GCAGGGAATTTGGTGATTCAGAGTAGTTTGTGTTGGAAAACGGAGTCACCTAGTGCAG”, the binding signal was 8180 fluorescence intensity (a.u.).

With “CCTATATTTTTATCAGATCTGATCCATGTACAAGTGGTACCGGAGTCACCTAGTGCAG”, the binding signal is 9860 fluorescence intensity (a.u.).

Take “GGGATCCTAACTCGCCACCAAACCTCCTCGTCGTTCTTCTCGGAGTCACCTAGTGCAG”: the binding signal was 10700 fluorescence intensity (a.u.).

Regarding “GCGTCCCCGCGGGGACGTTCCTGGTCGGGCGGGCGTACTTCGGAGTCACCTAGTGCAG”, the binding signal was 9290 fluorescence intensity (a.u.).

In the case of “AACCACTACCGTTTTTGACGTCAATTTCAATGCTCGGAATCGGAGTCACCTAGTGCAG”, the binding signal was 11400 fluorescence intensity (a.u.).

With “TCTCCCACTAACCATCGCCGGGAAATATTCGACTTAAAGTCGGAGTCACCTAGTGCAG”, the binding signal was 10200 fluorescence intensity (a.u.).

Turning to “CAAACTGAGGATATTTAGTATTTTGCCACTTTATAAACACCGGAGTCACCTAGTGCAG”, the binding signal is 9240 fluorescence intensity (a.u.).

In the case of “TAACACGAGGTACGGGGAGGGGCGGATGGGTGGCGGCGGCCGGAGTCACCTAGTGCAG”, the binding signal was 11900 fluorescence intensity (a.u.).

As for “ACCTTTTTAAATATTTGACACTGTCGACTTTTTAGCACATCGGAGTCACCTAGTGCAG”, the binding signal is 9730 fluorescence intensity (a.u.).

Consider “GAGGCAAACCAGTCGACAACATACACACATACATACAGGACGGAGTCACCTAGTGCAG”, for which the binding signal is 8130 fluorescence intensity (a.u.).

Regarding “ACCAATCTATGACCGGCCTGACGCCGGTCACGTCTGACTGCGGAGTCACCTAGTGCAG”, the binding signal is 10700 fluorescence intensity (a.u.).

Take “GCCTGCCTCGCCTCGGTTGGTGGCGCGCGCGCCGCTCGGCCGGAGTCACCTAGTGCAG”: the binding signal was 8440 fluorescence intensity (a.u.).

Take “AAATTAGCCTTCACTCGTTGCTACATACGTGTATTTTTTTCGGAGTCACCTAGTGCAG”: the binding signal is 8970 fluorescence intensity (a.u.).

With “CATGATATAACTGTAACACATCAAGTTGTCTGACCATATCCGGAGTCACCTAGTGCAG”, the binding signal was 8530 fluorescence intensity (a.u.).

In the case of “TTCTCTCTTGTTTTCCGTTATTGTACTCGCTATTAGTGGTCGGAGTCACCTAGTGCAG”, the binding signal was 8490 fluorescence intensity (a.u.).

For the sequence “TATGGTGTTTCTTAATTGCTTTTTGCTTTTTATTATATCTCGGAGTCACCTAGTGCAG”, the binding signal is 11100 fluorescence intensity (a.u.).

As to “CGACTGCAGCTGATCCGGATTCAACACGGACATAGTACACCGGAGTCACCTAGTGCAG”, the binding signal was 8550 fluorescence intensity (a.u.).

As for “CTTTTTCTTTCTTTTCGTTAGCACATTTTTAAAACAATTACGGAGTCACCTAGTGCAG”, the binding signal is 8530 fluorescence intensity (a.u.).

With “GAAGAAAAACTCCTGGACTCGTTGACCAAAACCTAATACGCGGAGTCACCTAGTGCAG”, the binding signal is 11100 fluorescence intensity (a.u.).

In the case of “AGTACTACTACTACTACATACAGCTGCCTTTGCTTAGCTCCGGAGTCACCTAGTGCAG”, the binding signal is 9580 fluorescence intensity (a.u.).

For “TGGCCATTCCCTTCCTCCCGCCGCACGCATCCTCTGATCCCGGAGTCACCTAGTGCAG”, the binding signal was 8050 fluorescence intensity (a.u.).

Take “ATTACCAATATTAATCACTTTCTGTGTTCTGCTGTTAATTCGGAGTCACCTAGTGCAG”: the binding signal is 9410 fluorescence intensity (a.u.).

In the case of “GAGCTAGATGCTCCCTCGCATCCATCTCCTAGCTTTCCTTCGGAGTCACCTAGTGCAG”, the binding signal is 8790 fluorescence intensity (a.u.).

Turning to “CATCATCATCATCCGTACAAAACGGTATCTAGCCTAGCTACGGAGTCACCTAGTGCAG”, the binding signal was 8620 fluorescence intensity (a.u.).

Turning to “CTCTTCTTGAGTTCTTGAATCAATGCGTTCTTGAGTTCTTCGGAGTCACCTAGTGCAG”, the binding signal was 8880 fluorescence intensity (a.u.).

In the case of “ATATATGCATGGCCCATCTTGAAGTTCATGTTGCACGTATCGGAGTCACCTAGTGCAG”, the binding signal was 8610 fluorescence intensity (a.u.).

Consider “TTTACATGTGTATTTTGACCAGGCCCAGTGTTTCTATACTCGGAGTCACCTAGTGCAG”, for which the binding signal was 8910 fluorescence intensity (a.u.).

For “TCGACATGCCTATTTATTCTGGCTTCGTCTTTTCCCATGCCGGAGTCACCTAGTGCAG”, the binding signal was 8510 fluorescence intensity (a.u.).

“AGGGTCTCATCACCGCCGCCGCCGCCGCCGCCTCCTCCTCCGGAGTCACCTAGTGCAG”: the binding signal is 8480 fluorescence intensity (a.u.).

For the sequence “TACAAAGGAATCTCTTTTACACCATGTACTCCCTCTATCACGGAGTCACCTAGTGCAG”, the binding signal was 8260 fluorescence intensity (a.u.).

Take “ACTCCATCCACCGCCGCCGCCTCCACCACGCGCGCCGCATCGGAGTCACCTAGTGCAG”: the binding signal is 8710 fluorescence intensity (a.u.).

For the origin of these results see article PMC7819943, “Rice protein-binding microarrays: a tool to detect cis-acting elements near promoter regions in rice”.
